We go through two molecules from paper PMC11773390.

No constants are given. Whether binding was seen depends on the method and setting. Binding seen in cells or lysates may run through a third protein. Some binding calls cover weakened binding; strength is not graded here.

The target in assay [1] is Flag-STING, Q86WV6. Description: co-IP; Flag-STING-THLE2 cells after OGD-rep (oxygen-glucose deprivation and reperfusion) treatment, with or without DMF; co-immunoprecipitation. As to conditions: remark: other sources report otherwise.
Assay [2] addresses STING, Q86WV6. Description: co-IP; HEK293T cells transfected with the indicated plasmids for 12 h, then treated with or without DMF (50 µM) for 12 h; co-immunoprecipitation. As to conditions: remark: other sources report otherwise.

B1: IRF3, Q14653 1-427 (protein)
chain: MGTPKPRILPWLVSQLDLGQLEGVAWVNKSRTRFRIPWKHGLRQDAQQEDFGIFQAWAEATGAYVPGRDKPDLPTWKRNFRSALNRKEGLRLAEDRSKDPHDPHKIYEFVNSGVGDFSQPDTSPDTNGGGSTSDTQEDILDELLGNMVLAPLPDPGPPSLAVAPEPCPQPLRSPSLDNPTPFPNLGPSENPLKRLLVPGEEWEFEVTAFYRGRQVFQQTISCPEGLRLVGSEVGDRTLPGWPVTLPDPGMSLTDRGVMSYVRHVLSCLGGGLALWRAGQWLWAQRLGHCHTYWAVSEELLPNSGHGPDGEVPKDKEGGVFDLGPFIVDLITFTEGSGRSPRYALWFCVGESWPQDQPWTKRLVMVKVVPTCLRALVEMARVGGASSLENTVDLHISNSHPLSLTSDQYKAYLQDLVEGMDFQGPGES
As to B1, the binding result in assay [1] and in assay [2] was “binds” throughout.

B2: TBK1, Q9UHD2 1-729 (protein)
chain: MQSTSNHLWLLSDILGQGATANVFRGRHKKTGDLFAIKVFNNISFLRPVDVQMREFEVLKKLNHKNIVKLFAIEEETTTRHKVLIMEFCPCGSLYTVLEEPSNAYGLPESEFLIVLRDVVGGMNHLRENGIVHRDIKPGNIMRVIGEDGQSVYKLTDFGAARELEDDEQFVSLYGTEEYLHPDMYERAVLRKDHQKKYGATVDLWSIGVTFYHAATGSLPFRPFEGPRRNKEVMYKIITGKPSGAISGVQKAENGPIDWSGDMPVSCSLSRGLQVLLTPVLANILEADQEKCWGFDQFFAETSDILHRMVIHVFSLQQMTAHKIYIHSYNTATIFHELVYKQTKIISSNQELIYEGRRLVLEPGRLAQHFPKTTEENPIFVVSREPLNTIGLIYEKISLPKVHPRYDLDGDASMAKAITGVVCYACRIASTLLLYQELMRKGIRWLIELIKDDYNETVHKKTEVVITLDFCIRNIEKTVKVYEKLMKINLEAAELGEISDIHTKLLRLSSSQGTIETSLQDIDSRLSPGGSLADAWAHQEGTHPKDRNVEKLQVLLNCMTEIYYQFKKDKAERRLAYNEEQIHKFDKQKLYYHATKAMTHFTDECVKKYEAFLNKSEEWIRKMLHLRKQLLSLTNQCFDIEEEVSKYQEYTNELQETLPQKMFTASSGIKHTMTPIYPSSNTLVEMTLGMKKLKEEMEGVVKELAENNHILERFGSLTMDGGLRNVDCL
B2: the binding entry in assay [1] and in assay [2] was “binds” throughout.
